# Measurements taken from the RNAGym collection of RNA variant scans (doi:10.1126/science.aae0568).
# This sample is rich in variants without activity.
# B1: tRNA (parent)
# chain: GUUCCGUUGGCGUAAUGGUAACGCGUCUCCCUCCUAAGGAGAAGACUGCGGGUUCGAGUCCCGUACGGAACG
# Variants of: B1
# Assay: yeast fitness relative to wild type (ratio to wild type); higher = fitter; tRNA-Arg(CCU), competitive growth, 37 C, YPD
# How it was run: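 A pool of Saccharomyces cerevisiae strains, each with a tRNA-Arg(CCU) gene variant at the native genomic locus, was competed in YPD at 37°C for 24 hours across six parallel replicates. The variants had been chemically synthesised at a 3% per-site mutation rate over 69 sites, and gene amplicons before and after competition were read by 100-nucleotide paired-end sequencing. Darwinian fitness relative to wild type rested on changes in genotype frequencies. Genotypes required ≥ 100 starting reads, and estimates < 0.5 were set to 0.5.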
row,Variant,yeast fitness
1,GUUCCGUCGGCGGAAUGGUAAUGCGUCUCCCUCCUAAGGAGAAGACUGCGGGUCCGAGUCCUGUACGCAACG [U8C U13G C22U U54C C62U G68C],≤ 0.5
2,GUUCCGUCGGCGUAACGGUAACGCGACUCCCUCCUAAGGAGAAGACUGCGGGUUCAAGUCCCGUGCGGAACG [U8C U16C U26A G56A A65G],≤ 0.5
3,GUUCCGUCGGCGUAAGGGUAACGCGUCUCCCUCCUAAGGAGAAGACUGCGGGUUCGAGUCCGGUAGGGCACG [U8C U16G C62G C66G A69C],≤ 0.5
4,GUUCCGUCGGCGUAAGGGUAACGCAUCUCCCUCCUAAGGAGAAGACUGCGGGUUCGAGUCCCGUACGAAACG [U8C U16G G25A G68A],≤ 0.5
5,GUUCCGUCGGCGUAAUGGAAACGCGUCUCCCUCCUAAGGGGAAGACUGCGGGUUGGAGUCCCGUCCGGAACG [U8C U19A A40G C55G A65C],≤ 0.5
6,GUUCCGUCGGCGUAAUGGUAACGCGUCACCCUCCUAAGGAGAAGACUGCGGGUUCGAGUCCCGUACGGAACG [U8C U28A],0.901
7,GUUCCGUCGGCGUAAUGGUAACGCGUCGCCCUCCUAAGGAGAAGAGUGUGGGUUCGAGUCCCGUACGGCACG [U8C U28G C46G C49U A69C],≤ 0.5
8,GUUCCGUGGGCGUAUUGGUCACGCGUCUCCCUCCUAAGGAGAAGACUGCGGGUUCGAGUCCCGUACGGCACG [U8G A15U A20C A69C],≤ 0.5
9,GUUCCGUGGGCGUAAUGGUAACGCGUCUCCCUCCUAGGGAGAAAACUGCGGGUUCGAGUCCCGUCCGGAACG [U8G A37G G44A A65C],≤ 0.5
10,GUUCCGUGGGCGUAAUGGUAACGCGUCUCCCUCCUAAGGAGAUGAGUGCGGGUUCGAGUCCCGUACCGAACG [U8G A43U C46G G67C],≤ 0.5
11,GUUCCGUGGGAGUAAUGGUAACGCGUCUCCCUCCUUAGGAGAAGACUGCGAGUUCAAGUCCGGUACGGAACG [U8G C11A A36U G51A G56A C62G],≤ 0.5
12,GUUCCGUGGGGGUAAUGGUAACGCGUCUCCCUCCUAAGGAGAAGACUGCGGGUUCGAGUCCCGUACGGCACG [U8G C11G A69C],≤ 0.5
13,GUUCCGUGGGCGUAAUGGUAAGGGGUCUCGCUCCUGAGGAGAAGACUGCGGGUUCGAGUCCCGUACGGAACG [U8G C22G C24G C30G A36G],≤ 0.5
14,GUUCCGUGGGCGUAAUGGUAAGGCGUCUCCCUCCUAAGGAGAAGACUACGGGUUCGAGUACCGCACGGCACG [U8G C22G G48A C60A U64C A69C],0.561
15,GUUCCGUGGGCGUAAUGGUAACGGGUCUCCCUCCUAAGGAGAAGACUGCGGGUUCGAGUCCCGUAAGGAACG [U8G C24G C66A],≤ 0.5
16,GUUCCGUGGGCGUAAUGGUAACGUGUCUCCCUCCUCAGGAGAAGACUGCGGGUUCGAGUCCCGUACGGAACG [U8G C24U A36C],≤ 0.5
17,GUUCCGUGGGCGUAAUGGUAACGUGUCUCCCUCCUCAGGAGAAGACUGCGGGUUCGAGUCUCGUACGAAACG [U8G C24U A36C C61U G68A],≤ 0.5
18,GUUCCGUGGGCGUAAUGGUAACGCGUCUCCCUACUAAGGAGAAGACUCCGGCUUCGAGUCCCGUACGGAACG [U8G C33A G48C G52C],≤ 0.5
19,GUUCCGUGGGCGUAAUGGUAACGCGUCUCCCUGCUAAGGAGAAGACUGCGGGUACGAGACCCGUACAGAACG [U8G C33G U54A U59A G67A],≤ 0.5

row,Variant,yeast fitness
1,GUUCCGUGGGCGUAAUGGUAACGCGUCUCCCUCGUAAGGAGAAGACUGCCGGUUCCAGUCCCGUACGGAACG [U8G C34G G50C G56C],≤ 0.5
2,GUUCCGUGGGCGUAAUGGUAACGCGUCUCCCUCCUAAGGAGAAGACUGGGGGCUCGAGUACCGUACGGAACG [U8G C49G U53C C60A],≤ 0.5
3,GUUCCGUGGGCGUAAUAGUAACGCGUCACCCUCCUAAGGAGAAGACUGCGGGUUCGAGUCCCGUACGGAACG [U8G G17A U28A],≤ 0.5
4,GUUCCGUGGGCGUAAUGCUAACGCGUCUCCCUCCUAGGGGGAAGACUGCGGGUUCGCGUCCCGUACGGAACG [U8G G18C A37G A40G A57C],≤ 0.5
5,GUUCCGUGGGCGUAAUGGUAACGCGUCUCCCUCCUAACGAGAACACUGCGGGUUCGAGUCGCGUACGGAACG [U8G G38C G44C C61G],≤ 0.5
6,GUUCCGUGGGCGUAAUGGUAACGCGUCUCCCUCCUAAGGAACAGACUGCCGGUUCGAGUCCCGUACGGAGCG [U8G G41A A42C G50C A70G],≤ 0.5
7,GUUCCGUGGGCGUAAAGGUAACGCGUCUCCCUCCUAAGGACAAGACUGCGGGUUCGAGUCCCGUACGGAACG [U8G U16A G41C],≤ 0.5
8,GUUCCGUGGGCGUAACGGUAUAGCGUCGCCCUCCUAAGGAGAAGACUGCGGGUUCGAGUCCCGUACGGAACG [U8G U16C A21U C22A U28G],≤ 0.5
9,GUUCCGUGGGCGUAAUGGGCACGGGUCUCCCUCCUUAGGAGAAGAUUGCGGGUUCGAGUCCCGUACGGAACG [U8G U19G A20C C24G A36U C46U],≤ 0.5
10,GUUCCGUGGGCGUAAUGGUAACGCGACUCCCUCCUAAGGAGAAGACUGCGGGUUCGAAUCCCGUACGGAACG [U8G U26A G58A],≤ 0.5
11,GUUCCGUGGGCGUAAUGGUAACGCGGCUCCCUCCUAAGGAGUAGACUGCGGGUUCGAGUCCCGUACGGAACG [U8G U26G A42U],≤ 0.5
12,GUUCCGUGGGCGUAAUGGUAACGCGUCUCCCUCCAAAGGAAAAGACUGCGGGUUCGAGUCCCGUAUGGAACG [U8G U35A G41A C66U],≤ 0.5
13,GUUCCGUUAGCGUCAUGGUAACGCGUCUCCCUCCUAAGGAGAAGACUGCGGGUUCGAGAGCCGUACGGAACG [G9A A14C U59A C60G],≤ 0.5
14,GUUCCGUUAGCGUUAUGGUAACGCGUCUCCCUCCUAAGGAGAAGAGUGCGGGUUUGAGUCCCGUACGGCACG [G9A A14U C46G C55U A69C],≤ 0.5
15,GUUCCGUUAGCGUAUUGGUGACGCGUCUCCCUCCUAAGGAGAAGACUGCGGAUUCGAGUCCCGUACGGAACG [G9A A15U A20G G52A],≤ 0.5
16,GUUCCGUUAGCGUAAUGGUGACGCGUCUCCCUCCUAAGGAGAAGACUGCGGGUUCGAGACCCGUAGGGAACG [G9A A20G U59A C66G],≤ 0.5
17,GUUCCGUUAGCGUAAUGGUUACGCGUCUCCCUCGUAAGGAGUAGACUGCGGGUUCGAGUCCCGUACGCAACG [G9A A20U C34G A42U G68C],≤ 0.5
18,GUUCCGUUAGCGUAAUGGUACCGGGUCUCCCUCUUAAGGAGAAGACUGCGGGUUCGAGUCCCGUACGGAACG [G9A A21C C24G C34U],≤ 0.5
19,GUUCCGUUAGCGUAAUGGUACCGCCUCUCCCACCUAAGGAGAAGACUGCGGGUUCGAGUCCCGUACGGAACG [G9A A21C G25C U32A],≤ 0.5
